Experimental data published in the supplement of paper PMC10849652.
The list shows a part of the results.

Sequences of proteins named here, by UniProt entry; tags and fusion partners are left off. A change or cut given only in a name is not applied to a line headed by its entry.
UniProt Q9ULZ3, whole entry, looked up: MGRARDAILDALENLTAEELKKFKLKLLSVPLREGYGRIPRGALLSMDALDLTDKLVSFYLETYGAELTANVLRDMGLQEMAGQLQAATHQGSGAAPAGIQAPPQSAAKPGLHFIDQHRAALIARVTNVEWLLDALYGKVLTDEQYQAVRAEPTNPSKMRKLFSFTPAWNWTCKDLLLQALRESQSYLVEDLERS
UniProt P61026: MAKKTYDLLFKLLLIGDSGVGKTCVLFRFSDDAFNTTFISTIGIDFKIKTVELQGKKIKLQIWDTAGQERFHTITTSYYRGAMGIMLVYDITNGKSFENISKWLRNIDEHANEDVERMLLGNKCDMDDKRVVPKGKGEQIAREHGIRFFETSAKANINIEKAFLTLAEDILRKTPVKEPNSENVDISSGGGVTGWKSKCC
UniProt Q9Y3P9: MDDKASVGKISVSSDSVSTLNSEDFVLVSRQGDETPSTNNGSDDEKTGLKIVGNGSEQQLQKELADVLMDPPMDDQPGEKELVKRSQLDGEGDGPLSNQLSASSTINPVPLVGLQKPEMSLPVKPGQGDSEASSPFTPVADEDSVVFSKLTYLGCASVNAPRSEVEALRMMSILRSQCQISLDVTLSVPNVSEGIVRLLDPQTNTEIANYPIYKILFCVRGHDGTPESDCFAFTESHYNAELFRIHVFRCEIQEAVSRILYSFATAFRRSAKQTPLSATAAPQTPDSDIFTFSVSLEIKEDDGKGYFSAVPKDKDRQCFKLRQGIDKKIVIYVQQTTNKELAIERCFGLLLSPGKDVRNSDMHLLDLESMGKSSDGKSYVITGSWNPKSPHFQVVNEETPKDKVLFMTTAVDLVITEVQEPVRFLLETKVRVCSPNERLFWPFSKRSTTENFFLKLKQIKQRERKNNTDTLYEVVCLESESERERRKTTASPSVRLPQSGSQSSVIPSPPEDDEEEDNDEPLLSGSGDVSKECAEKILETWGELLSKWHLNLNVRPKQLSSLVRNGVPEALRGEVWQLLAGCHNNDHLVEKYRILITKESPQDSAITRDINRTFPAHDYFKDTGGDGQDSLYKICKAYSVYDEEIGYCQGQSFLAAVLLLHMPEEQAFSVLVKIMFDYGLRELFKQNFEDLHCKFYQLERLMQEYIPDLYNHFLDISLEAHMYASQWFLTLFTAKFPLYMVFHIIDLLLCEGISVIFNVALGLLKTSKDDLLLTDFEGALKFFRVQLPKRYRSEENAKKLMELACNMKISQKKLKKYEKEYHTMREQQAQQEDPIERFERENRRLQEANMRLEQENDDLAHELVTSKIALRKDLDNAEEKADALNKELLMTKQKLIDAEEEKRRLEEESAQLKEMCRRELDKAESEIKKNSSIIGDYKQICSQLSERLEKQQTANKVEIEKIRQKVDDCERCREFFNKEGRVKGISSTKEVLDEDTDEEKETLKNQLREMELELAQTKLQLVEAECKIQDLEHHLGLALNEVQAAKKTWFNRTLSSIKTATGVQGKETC
UniProt P46060: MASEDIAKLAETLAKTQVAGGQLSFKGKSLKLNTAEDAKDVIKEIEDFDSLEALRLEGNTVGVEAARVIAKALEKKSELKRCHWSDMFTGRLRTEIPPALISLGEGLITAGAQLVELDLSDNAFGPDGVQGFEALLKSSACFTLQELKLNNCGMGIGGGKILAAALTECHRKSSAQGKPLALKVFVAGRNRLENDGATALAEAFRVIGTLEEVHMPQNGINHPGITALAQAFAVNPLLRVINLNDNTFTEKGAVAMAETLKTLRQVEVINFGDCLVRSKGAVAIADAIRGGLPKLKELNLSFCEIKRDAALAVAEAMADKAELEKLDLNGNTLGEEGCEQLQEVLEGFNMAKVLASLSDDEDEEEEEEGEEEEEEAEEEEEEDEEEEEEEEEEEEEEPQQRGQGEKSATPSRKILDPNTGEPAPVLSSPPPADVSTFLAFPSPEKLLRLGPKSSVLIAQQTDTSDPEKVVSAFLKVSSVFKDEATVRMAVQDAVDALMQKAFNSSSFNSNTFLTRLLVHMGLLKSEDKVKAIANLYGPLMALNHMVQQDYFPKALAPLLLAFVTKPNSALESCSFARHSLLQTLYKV
UniProt Q15907: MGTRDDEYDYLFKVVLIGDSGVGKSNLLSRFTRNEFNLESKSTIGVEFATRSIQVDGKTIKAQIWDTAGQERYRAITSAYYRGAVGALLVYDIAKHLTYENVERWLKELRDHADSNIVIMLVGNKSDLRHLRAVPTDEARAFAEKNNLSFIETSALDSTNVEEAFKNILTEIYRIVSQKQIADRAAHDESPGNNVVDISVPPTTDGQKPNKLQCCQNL
UniProt Q9Y3L5: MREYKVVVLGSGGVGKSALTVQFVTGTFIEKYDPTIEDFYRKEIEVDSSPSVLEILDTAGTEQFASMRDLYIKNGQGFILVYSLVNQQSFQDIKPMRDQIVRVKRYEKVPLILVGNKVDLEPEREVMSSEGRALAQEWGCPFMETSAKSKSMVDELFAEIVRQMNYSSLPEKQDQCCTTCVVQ
UniProt P62820, whole entry, looked up: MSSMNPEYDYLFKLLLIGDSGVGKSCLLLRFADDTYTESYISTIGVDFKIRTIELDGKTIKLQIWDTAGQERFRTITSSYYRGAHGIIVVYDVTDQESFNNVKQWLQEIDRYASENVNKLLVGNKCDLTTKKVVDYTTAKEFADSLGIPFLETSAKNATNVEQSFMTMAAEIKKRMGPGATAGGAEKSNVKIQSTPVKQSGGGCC
UniProt Q9NXS2: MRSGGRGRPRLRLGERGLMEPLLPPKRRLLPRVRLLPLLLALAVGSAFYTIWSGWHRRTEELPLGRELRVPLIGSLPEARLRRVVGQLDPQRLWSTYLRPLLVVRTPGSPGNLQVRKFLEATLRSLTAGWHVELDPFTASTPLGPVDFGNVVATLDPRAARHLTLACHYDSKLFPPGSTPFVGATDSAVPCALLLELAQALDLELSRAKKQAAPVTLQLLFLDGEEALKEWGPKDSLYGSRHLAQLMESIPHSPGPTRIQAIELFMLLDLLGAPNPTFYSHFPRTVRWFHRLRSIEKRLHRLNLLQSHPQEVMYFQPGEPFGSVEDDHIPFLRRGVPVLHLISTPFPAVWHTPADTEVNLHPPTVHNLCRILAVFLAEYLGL
UniProt Q9UKM9: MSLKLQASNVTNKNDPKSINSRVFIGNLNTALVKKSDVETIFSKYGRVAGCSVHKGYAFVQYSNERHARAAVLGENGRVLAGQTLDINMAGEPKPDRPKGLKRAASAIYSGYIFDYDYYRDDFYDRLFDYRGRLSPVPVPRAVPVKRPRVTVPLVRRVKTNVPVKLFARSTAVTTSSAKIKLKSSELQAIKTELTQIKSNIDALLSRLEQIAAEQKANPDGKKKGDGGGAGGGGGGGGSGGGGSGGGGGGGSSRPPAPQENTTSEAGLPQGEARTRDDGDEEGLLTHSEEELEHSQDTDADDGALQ
UniProt Q96PU8: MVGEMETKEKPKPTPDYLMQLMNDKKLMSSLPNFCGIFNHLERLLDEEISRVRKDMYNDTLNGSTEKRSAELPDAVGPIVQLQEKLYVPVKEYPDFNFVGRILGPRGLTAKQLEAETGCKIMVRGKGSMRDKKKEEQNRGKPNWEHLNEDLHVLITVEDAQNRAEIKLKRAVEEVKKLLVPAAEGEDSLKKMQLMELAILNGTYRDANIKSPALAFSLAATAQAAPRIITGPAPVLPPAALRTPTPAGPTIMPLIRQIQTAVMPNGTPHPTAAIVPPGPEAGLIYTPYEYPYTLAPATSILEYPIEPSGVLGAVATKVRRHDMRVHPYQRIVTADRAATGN
UniProt Q9NP72: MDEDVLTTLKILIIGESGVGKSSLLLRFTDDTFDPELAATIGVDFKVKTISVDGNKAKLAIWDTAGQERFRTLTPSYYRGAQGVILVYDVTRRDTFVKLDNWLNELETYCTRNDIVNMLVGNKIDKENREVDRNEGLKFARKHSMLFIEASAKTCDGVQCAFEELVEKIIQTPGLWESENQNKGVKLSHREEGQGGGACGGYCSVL
UniProt P54727: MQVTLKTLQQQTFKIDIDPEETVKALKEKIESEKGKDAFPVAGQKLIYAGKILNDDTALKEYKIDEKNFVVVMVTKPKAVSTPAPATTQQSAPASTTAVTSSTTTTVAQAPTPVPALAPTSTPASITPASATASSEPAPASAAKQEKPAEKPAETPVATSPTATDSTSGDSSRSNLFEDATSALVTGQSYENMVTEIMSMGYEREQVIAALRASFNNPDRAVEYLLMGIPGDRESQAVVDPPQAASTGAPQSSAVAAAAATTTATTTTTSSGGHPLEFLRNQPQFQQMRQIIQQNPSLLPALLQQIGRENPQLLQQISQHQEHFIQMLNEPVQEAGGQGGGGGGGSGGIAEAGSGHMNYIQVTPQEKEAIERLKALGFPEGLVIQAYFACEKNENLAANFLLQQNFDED
UniProt Q15042: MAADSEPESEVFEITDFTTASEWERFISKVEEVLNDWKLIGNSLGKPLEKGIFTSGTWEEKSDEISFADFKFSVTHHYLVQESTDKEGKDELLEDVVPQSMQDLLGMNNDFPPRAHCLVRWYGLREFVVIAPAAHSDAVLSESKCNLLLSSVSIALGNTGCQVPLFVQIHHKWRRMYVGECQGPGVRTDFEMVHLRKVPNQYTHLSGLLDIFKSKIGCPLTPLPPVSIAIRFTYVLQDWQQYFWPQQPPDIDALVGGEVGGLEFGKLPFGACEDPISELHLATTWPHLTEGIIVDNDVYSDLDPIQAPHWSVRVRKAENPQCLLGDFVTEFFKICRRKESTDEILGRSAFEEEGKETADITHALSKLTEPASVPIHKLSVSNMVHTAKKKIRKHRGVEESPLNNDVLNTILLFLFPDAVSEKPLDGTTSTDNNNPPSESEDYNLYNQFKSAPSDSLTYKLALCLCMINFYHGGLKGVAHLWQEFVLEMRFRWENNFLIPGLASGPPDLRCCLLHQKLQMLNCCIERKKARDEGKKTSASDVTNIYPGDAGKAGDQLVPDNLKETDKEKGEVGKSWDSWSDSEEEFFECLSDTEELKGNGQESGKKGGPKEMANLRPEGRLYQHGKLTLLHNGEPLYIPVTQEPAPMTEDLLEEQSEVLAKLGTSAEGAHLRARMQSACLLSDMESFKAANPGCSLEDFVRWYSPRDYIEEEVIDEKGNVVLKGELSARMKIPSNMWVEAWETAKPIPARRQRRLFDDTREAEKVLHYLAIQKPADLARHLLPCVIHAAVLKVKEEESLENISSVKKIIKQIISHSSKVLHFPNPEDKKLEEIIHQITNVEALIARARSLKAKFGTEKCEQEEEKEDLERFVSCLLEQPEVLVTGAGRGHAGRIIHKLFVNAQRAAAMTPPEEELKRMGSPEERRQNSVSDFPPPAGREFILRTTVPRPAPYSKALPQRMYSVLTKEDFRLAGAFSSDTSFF
UniProt Q9NR77: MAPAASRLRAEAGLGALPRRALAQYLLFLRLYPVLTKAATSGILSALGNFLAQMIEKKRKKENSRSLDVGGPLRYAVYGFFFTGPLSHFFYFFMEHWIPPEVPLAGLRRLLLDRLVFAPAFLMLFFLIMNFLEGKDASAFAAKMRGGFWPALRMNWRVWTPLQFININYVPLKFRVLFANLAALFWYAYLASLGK
UniProt Q6ZRP7: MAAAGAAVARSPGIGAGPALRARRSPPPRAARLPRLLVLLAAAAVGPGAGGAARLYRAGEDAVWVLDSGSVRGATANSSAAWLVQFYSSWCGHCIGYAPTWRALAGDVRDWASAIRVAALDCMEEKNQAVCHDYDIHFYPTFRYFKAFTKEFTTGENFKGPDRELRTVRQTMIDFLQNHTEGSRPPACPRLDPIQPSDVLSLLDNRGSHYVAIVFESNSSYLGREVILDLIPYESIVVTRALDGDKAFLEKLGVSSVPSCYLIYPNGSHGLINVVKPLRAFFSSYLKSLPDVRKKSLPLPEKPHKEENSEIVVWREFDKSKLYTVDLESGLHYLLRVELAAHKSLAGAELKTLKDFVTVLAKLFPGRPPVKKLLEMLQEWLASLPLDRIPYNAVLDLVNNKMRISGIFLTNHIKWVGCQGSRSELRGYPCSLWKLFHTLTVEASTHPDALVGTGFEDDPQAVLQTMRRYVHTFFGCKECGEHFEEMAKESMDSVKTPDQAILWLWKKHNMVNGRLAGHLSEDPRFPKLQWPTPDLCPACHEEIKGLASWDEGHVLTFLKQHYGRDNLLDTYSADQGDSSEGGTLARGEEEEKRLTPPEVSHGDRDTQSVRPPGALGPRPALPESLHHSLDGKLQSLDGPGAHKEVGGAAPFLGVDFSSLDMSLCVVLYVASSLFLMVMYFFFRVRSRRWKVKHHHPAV

Compound: c1cn2cc(-c3ccc4cn[nH]c4c3)nc(Nc3ccc(N4CCOCC4)cc3)c2n1 [entospletinib]
Assay: log2 fold change, soluble protein after heating vs DMSO (PISA); higher = thermal stabilisation; K562 lysate, 10 uM; active = over 0.2 and 3.5 SD of the protein, either way, in both replicates (recomputed)
Summary of the method: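 K562 pellets were dounce-homogenised in PBS pH 7.4 containing 1 mM MgCl2, and the crude extract, at 1 mg/mL protein, was exposed to 10 μM compound for 30 min. Aliquots were heated for 3 min across 48°C-58°C, pooled, brought to 0.5% NP-40 at 4°C and spun at 21,000xg for 90 min, with the supernatant taken as soluble protein. TMTpro 16plex LC-MS/MS with equalised channel sums quantified that protein. Values are log-two fold changes in thermal stability relative to solvent controls, taken from duplicates.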

log2 fold change, inactive:
PYCARD (UniProt Q9ULZ3) -0.006
RAB10 (UniProt P61026) -0.013
RABGAP1 (UniProt Q9Y3P9) 0.01
RANGAP1 (UniProt P46060) 0.015
RAB11B (UniProt Q15907) -0.033
RAPGEF1 isoform 3 (UniProt Q13905) -0.022
RAP2C (UniProt Q9Y3L5) 0.005
RAB1A (UniProt P62820) -0.034
QPCTL (UniProt Q9NXS2) -0.024
RALY (UniProt Q9UKM9) 0.006
QKI (UniProt Q96PU8) 0.007
RAB18 (UniProt Q9NP72) -0.177
RAD23B (UniProt P54727) 0.001
RAB3GAP1 (UniProt Q15042) -0.011
PXMP2 (UniProt Q9NR77) 0.02
QSOX2 (UniProt Q6ZRP7) -0.018

A section taken from the entries so far, for reference:
log2 fold change, inactive:
PXMP2 (UniProt Q9NR77) 0.02
QSOX2 (UniProt Q6ZRP7) -0.018
